The nature of the assay: qHTS Assay to Find Inhibitors of Chronic Active B-Cell Receptor Signaling. To be noted: ABC-DLBCL IkBa-CBG/CBR reporter, luminescence ratio (green luciferase fused to IkBa over red control in TMD8 lymphoma cells), 4 h. The essentials: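 TMD8 human ABC-DLBCL cells with doxycycline-inducible IκBα–green luciferase fusion and unfused red luciferase, in 0.5% FBS medium; compounds up to 46 uM, 4 h at 37C. Green/red luminescence ratio, filter-overlap corrected, fitted to concentration-response curves.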

[1] abbreviates: measured here: CBR red luminescence, cell number.
[2] abbreviates: measured here: IkBa-CBG green luminescence.

As usually defined, the AC50 is the concentration giving half of the maximal activity seen.

SMILES strings stand for the structures. The list shows a part of the results. Further columns of the screen follow, without active or inactive calls. The list favours compounds with an active or inconclusive main result. Potencies come from curve fits of mixed quality, noted in brackets.

`O=C(CSc1nc2c(c(=O)[nH]1)CCC2)Nc1ccc(F)cc1`: the AC50 under setting [1] is 7.08 µM [falling, partial curve, poor fit]. In the case of `O=C(c1ccco1)N1CCN(c2nc(C(F)(F)F)nc3c2nnn3Cc2ccccc2)CC1`, the AC50 under setting [1] was 8.2 µM [rising, partial curve, poor fit].

On to `O=C(NCC(c1ccco1)N1CCc2ccccc21)C(=O)Nc1ccc(F)cc1F` (stereo not drawn), for which the AC50 under setting [2] was 23.1 µM [falling, single point]. With `COc1cc(NC(=O)C/C(C)=N/NC(=O)C(=O)NCCO)c(OC)cc1Cl`, under setting [1], the AC50 was 12.6 µM [falling, partial curve, poor fit]. `COC(=O)C1=C(C)NC(C)=C([N+](=O)[O-])C1c1ccccc1C(F)(F)F` (stereo not drawn): the AC50 under setting [1] is 6.51 µM [falling, partial curve, poor fit] and the half-maximal activity concentration (AC50) under setting [2] is 32.6 µM [rising, partial curve, poor fit]. `CCc1c(O)nc(SC2CC(=O)N(c3ccccc3)C2=O)[nH]c1=O` (stereo not drawn): the AC50 under setting [1] is 35.5 µM [rising, single point]. On the same count and under the same terms, as for `CN1CCN(C(=O)C2CCC(=O)N(CCc3cccc(F)c3)C2)CC1` (stereo not drawn), the figure is 3.16 µM [rising, single point]; as for `Nc1nc(SCC(=O)NCCC(c2ccccc2)c2ccccc2)n[nH]1`, 16.4 µM [rising, partial curve, poor fit]; as for `Cc1ccc(NC(=O)C(c2ccccc2)N2CCN(CC(=O)N3CCOCC3)CC2)cc1` (stereo not drawn), 0.731 µM [rising, full curve, poor fit]. Same read-out and setting: with `Nc1ccc(-c2nc3ncccc3o2)c(Cl)c1` the figure was 7.08 µM [falling, partial curve, poor fit]; with `COc1ccc(OC)c(-n2nnnc2SCC(=O)O)c1`, 29.1 µM [rising, single point]. For `Cc1ccc(Cn2nc(C)c(NC(=O)CCCn3nc([N+](=O)[O-])c(Cl)c3C)c2C)cc1`, the AC50 under setting [1] is 0.103 µM [falling, full curve, poor fit]. Consider `O=C(Nc1nc(-c2ccccn2)cs1)c1ccc(Br)s1`, for which the AC50 under setting [1] is 0.0461 µM [rising, full curve, poor fit]. Take `CC1(C(=O)O)CC(C)(C(=O)O)CC(C)(C(=O)O)C1` (stereo not drawn): the AC50 under setting [1] is 5.8 µM [rising, full curve, poor fit].

Turning to `CN(CC(=O)Nc1ccc(F)cc1)C(=O)c1ccc2ccccc2n1`, the AC50 under setting [1] was 0.731 µM [rising, full curve, poor fit]. For `O=C(Nc1ccc(Nc2ccccc2)cc1)C(Cl)(Cl)Cl`, the AC50 under setting [1] is 1.84 µM [rising, partial curve]. Same read-out and setting: as for `CCNC1=C(Cl)C(=O)c2ccccc2C1=O`, the figure is 20 µM [falling, partial curve]; as for `Cc1ccc(-c2ccc(=O)n(CCC(=O)NCc3ccccn3)n2)cc1`, 1.03 µM [falling, full curve, poor fit]. Same read-out and setting: as for `O=C(NC1CCCCC1)C(c1ccco1)N(C(=O)c1csnn1)c1cccc(Cl)c1` (stereo not drawn), the figure is 10 µM [falling, partial curve]; as for `Cc1nc(SCC(=O)Nc2nc3ccccc3s2)n[nH]1`, 35.5 µM [falling, single point]; as for `Cc1cc(C(C)(C)C)ccc1OCCCCN1CCCC1`, 29.1 µM [falling, single point]. The same measure, in the same setting: as for `Cc1cc(C)c2nc(N3C(=O)C(O)=C(C(=O)c4ccco4)C3c3ccc(O)cc3)sc2c1` (stereo not drawn), the figure is 7.31 µM [falling, partial curve, poor fit]. In the case of `CCn1c(SCc2ccc(C(=O)Nc3nccs3)cc2)nnc1-c1ccc(N)cc1`, the AC50 was 29.1 µM [falling, single point] under setting [1] and 4.61 µM [rising, partial curve, poor fit] under setting [2].

Regarding `O=c1[nH]c(SCc2ccc(Cl)cc2)nc2ccsc12`, the AC50 under setting [1] was 10 µM [falling, partial curve, poor fit]. With `COc1ccc(OC)c(-c2csc(NC(=O)COC(=O)C3(C)CC3(Cl)Cl)n2)c1` (stereo not drawn), under setting [1], the AC50 is 29.1 µM [falling, single point]. As to `COc1c(O)ccc2c1CN1CCc3cc4c(cc3C1C2)OCO4` (stereo not drawn), the AC50 under setting [1] was 22.4 µM [falling, single point]. Same read-out and setting: as for `CN(C)/C=C/C(=O)c1cnc(-c2ccc(Cl)cc2)s1`, the figure is 17.8 µM [falling, single point]; as for `COC(=O)c1ccccc1NC1c2ccccc2C(=O)N1c1cccnc1` (stereo not drawn), 20.6 µM [falling, single point]; as for `COc1cccc2[nH]c(C(=O)NN)c(N)c12`, 7.08 µM [falling, partial curve, poor fit]. As to `COCCNC(=S)N/N=C(\C)c1cccc(C(F)(F)F)c1`, the concentration at half-maximal activity (AC50) is 35.5 µM [falling, single point] under setting [1] and 25.1 µM [falling, single point] under setting [2]. With `Nc1nc2c(ncn2C2C[C@H](O)[C@@H](CO)O2)c(=O)[nH]1` (stereo partly drawn), the AC50 under setting [1] was 20.6 µM [rising, partial curve, poor fit]. In the case of `CCCc1nn(C)c(C(=O)Nc2ccc(Cl)cc2)c1Cl`, the AC50 under setting [1] is 10.3 µM [rising, partial curve]. Still for that read-out and setting: as for `O=C1CSc2ccc(C(=O)NCCc3ccc(Cl)cc3Cl)cc2N1`, the figure is 14.6 µM [falling, partial curve, poor fit]; as for `CC(C)C(=O)Nc1ccc(Oc2ccc3c(c2)C(=O)NC3=O)cc1`, 2.82 µM [rising, full curve, poor fit]; as for `O=C(Cn1cnc2cc([N+](=O)[O-])ccc2c1=O)Nc1ccc(Br)cc1`, 35.5 µM [falling, single point]. The same measure, in the same setting: with `Clc1nc2c(-c3ccccc3)nnn2c2ccccc12` the figure was 0.0794 µM [falling, full curve, poor fit]. On the same count and under the same terms, with `CN(CC(O)COCc1ccccc1F)C1CCCCC1` (stereo not drawn) the figure was 10 µM [rising, partial curve]. Consider `O=C(COc1ccc(Cl)cc1)NCc1nnc(SCC(=O)N2CCCc3ccccc32)o1`, for which the AC50 under setting [1] is 23.1 µM [rising, single point]. Same read-out and setting: as for `COc1ccc(C(=O)Nc2ccc(C3CC3(Cl)Cl)cc2)cc1` (stereo not drawn), the figure is 35.5 µM [rising, single point]; as for `O=C(CSc1nc2ccccc2s1)N/N=C/c1ccc(C(=O)O)cc1`, 1.26 µM [falling, full curve].

The values above are taken from PubChem BioAssay AID493014 (National Center for Advancing Translational Sciences (NCATS), 2011).
